± gives the standard deviation of the averaged measurements. This is one part of the list.
Biological target: T1, A0A0A0MRK6|Q13505 and related entries (UniProt Q13505)
T1 sequence (whole entry): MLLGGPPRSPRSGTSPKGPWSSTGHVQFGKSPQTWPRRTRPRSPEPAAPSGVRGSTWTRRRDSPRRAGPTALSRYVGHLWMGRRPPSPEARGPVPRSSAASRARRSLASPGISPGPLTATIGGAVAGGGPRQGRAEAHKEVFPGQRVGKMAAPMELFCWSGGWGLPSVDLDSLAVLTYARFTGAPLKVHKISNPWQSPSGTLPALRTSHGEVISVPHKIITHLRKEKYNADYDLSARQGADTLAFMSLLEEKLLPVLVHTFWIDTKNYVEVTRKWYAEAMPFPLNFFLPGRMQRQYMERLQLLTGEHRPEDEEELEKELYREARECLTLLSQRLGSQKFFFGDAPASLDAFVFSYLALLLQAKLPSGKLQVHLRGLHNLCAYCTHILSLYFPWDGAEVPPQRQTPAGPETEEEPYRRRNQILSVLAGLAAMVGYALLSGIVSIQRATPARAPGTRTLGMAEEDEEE
Assay: NP40-soluble protein abundance relative to vehicle (solubility fold change) (ratio); higher = more soluble protein in presence of GTP
Experimental: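 Solubility proteome profiling in Jurkat crude lysate. Lysate was treated with Mg-GTP (0.1-10 mM) for 10 min at room temperature and 3 min at 37 °C, then solubilised with 0.8% NP40 and benzonase, followed by ultracentrifugation. Proteins were quantified by TMT10 LC-MS/MS; the value is the NP40-soluble abundance relative to the NP40-processed vehicle, from 3 independent experiments.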

## Nc1nc2c(ncn2[C@@H]2O[C@H](COP(=O)(O)OP(=O)(O)OP(=O)(O)O)[C@@H](O)[C@H]2O)c(=O)[nH]1 [guanosine triphosphate]
concentration: 0.1mM
  NP40-soluble protein abundance: 1 ± 0.022
concentration: 0.5mM
  NP40-soluble protein abundance: 0.963 ± 0.017
concentration: 1mM
  NP40-soluble protein abundance: 0.936 ± 0.015
concentration: 2mM
  NP40-soluble protein abundance: 0.918 ± 0.06
concentration: 4mM
  NP40-soluble protein abundance: 0.919 ± 0.067
concentration: 6mM
  NP40-soluble protein abundance: 0.879 ± 0.065
concentration: 8mM
  NP40-soluble protein abundance: 0.847 ± 0.074
concentration: 10mM
  NP40-soluble protein abundance: 0.858 ± 0.084

Source: the supplement of paper PMC6411743
